According to publication PMC12501277, “The deubiquitylase OTUB1 drives gemcitabine resistance in pancreatic cancer by enhancing pyrimidine metabolism through modulating DHODH mRNA stability” (Cell Death & Disease, 2025):
No constants are given. Whether binding was seen depends on the method and setting. In cells and extracts the contact can be indirect. Here binding means that the protein was enriched with, or labelled near, the bait; the list need not be complete.

By UniProt entry, the sequences of proteins in these tests, tags left out.
UniProt Q96FW1: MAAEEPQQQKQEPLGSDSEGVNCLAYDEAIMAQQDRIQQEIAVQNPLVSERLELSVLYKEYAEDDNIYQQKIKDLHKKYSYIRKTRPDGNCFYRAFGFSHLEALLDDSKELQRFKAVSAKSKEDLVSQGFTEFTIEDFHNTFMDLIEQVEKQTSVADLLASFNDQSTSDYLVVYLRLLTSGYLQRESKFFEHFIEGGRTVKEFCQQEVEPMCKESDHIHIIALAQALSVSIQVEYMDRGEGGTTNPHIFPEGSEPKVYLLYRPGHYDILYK
UniProt O00571: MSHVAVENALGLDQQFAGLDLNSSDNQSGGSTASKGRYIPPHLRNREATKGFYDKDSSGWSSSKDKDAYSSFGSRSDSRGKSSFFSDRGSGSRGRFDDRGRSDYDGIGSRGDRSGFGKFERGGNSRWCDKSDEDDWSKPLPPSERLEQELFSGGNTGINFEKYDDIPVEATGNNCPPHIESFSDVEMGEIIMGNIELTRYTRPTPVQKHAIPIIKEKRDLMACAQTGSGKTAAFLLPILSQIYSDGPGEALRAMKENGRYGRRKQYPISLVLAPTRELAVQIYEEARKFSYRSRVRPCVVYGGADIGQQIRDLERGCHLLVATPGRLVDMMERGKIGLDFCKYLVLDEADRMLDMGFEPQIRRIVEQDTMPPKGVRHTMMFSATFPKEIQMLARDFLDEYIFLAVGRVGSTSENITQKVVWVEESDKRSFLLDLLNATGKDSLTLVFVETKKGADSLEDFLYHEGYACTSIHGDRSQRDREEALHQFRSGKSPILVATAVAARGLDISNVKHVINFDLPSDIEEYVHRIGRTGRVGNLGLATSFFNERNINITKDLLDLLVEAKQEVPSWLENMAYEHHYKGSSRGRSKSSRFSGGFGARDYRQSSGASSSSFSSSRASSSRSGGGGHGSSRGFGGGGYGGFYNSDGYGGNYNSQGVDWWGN

Biological target: OTUB1 (human (endogenous in AsPC-1)) (UniProt Q96FW1)
Assay: affinity purification with mass spectrometry; OTUB1 immunoprecipitates from PC cells analysed by mass spectrometry

binding: binds
Substance: DEAD-box helicase 3 X-linked (DDX3X) (from UniProt O00571 1-662)
